Construct, isoform or probe ends are uncertain for at least one entry. Weaker means in comparison with the reference protein, sequence or condition of that experiment. For part of these data: At least one verdict was read from the data and is not stated in words by the source. For part of these data: Tags and fusion partners may be left off the protein sequences shown.
Key:
Assay in all cases: EMSA
[1] = test system: B35SSB (Bacillus phage Bam35 (betatectivirus)); settings: EMSA: 50 mM Tris-HCl pH 7.5, 50 mM NaCl, 1 mM DTT, 4% glycerol, 0.1 mg/ml BSA, 0.05% Tween 20, 1 mM EDTA, 10 min at 4 C, 2 nM labeled probe, recombinant protein, protein details: N-terminal Strep-tag II, HRV 3C site (pET-52b(+))
[2] = test system: B35SSB F48A (Bacillus phage Bam35); settings: EMSA: 50 mM Tris-HCl pH 7.5, 50 mM NaCl, 1 mM DTT, 4% glycerol, 0.1 mg/ml BSA, 0.05% Tween 20, 1 mM EDTA, 10 min at 4 C, recombinant protein, protein details: N-terminal Strep-tag II, label: 5' 32P, single-stranded DNA
[3] = test system: B35SSB K130A (Bacillus phage Bam35); settings: strongly reduced; EMSA: 50 mM Tris-HCl pH 7.5, 50 mM NaCl, 1 mM DTT, 4% glycerol, 0.1 mg/ml BSA, 0.05% Tween 20, 1 mM EDTA, 10 min at 4 C; 2 nM labeled probe; recombinant protein; protein details: N-terminal Strep-tag II; label: 5' 32P; single-stranded DNA
[4] = test system: B35SSB K156A (Bacillus phage Bam35); settings: strongly reduced; EMSA: 50 mM Tris-HCl pH 7.5, 50 mM NaCl, 1 mM DTT, 4% glycerol, 0.1 mg/ml BSA, 0.05% Tween 20, 1 mM EDTA, 10 min at 4 C; 2 nM labeled probe; recombinant protein; protein details: N-terminal Strep-tag II; label: 5' 32P; single-stranded DNA
[5] = test system: B35SSB S49A (Bacillus phage Bam35); settings: EMSA: 50 mM Tris-HCl pH 7.5, 50 mM NaCl, 1 mM DTT, 4% glycerol, 0.1 mg/ml BSA, 0.05% Tween 20, 1 mM EDTA, 10 min at 4 C, 2 nM labeled probe, recombinant protein, protein details: N-terminal Strep-tag II, label: 5' 32P, single-stranded DNA
[6] = test system: B35SSB V124A (Bacillus phage Bam35); settings: EMSA: 50 mM Tris-HCl pH 7.5, 50 mM NaCl, 1 mM DTT, 4% glycerol, 0.1 mg/ml BSA, 0.05% Tween 20, 1 mM EDTA, 10 min at 4 C, recombinant protein, protein details: N-terminal Strep-tag II, label: 5' 32P, single-stranded DNA
[7] = test system: B35SSB V87A (Bacillus phage Bam35); settings: EMSA: 50 mM Tris-HCl pH 7.5, 50 mM NaCl, 1 mM DTT, 4% glycerol, 0.1 mg/ml BSA, 0.05% Tween 20, 1 mM EDTA, 10 min at 4 C, 2 nM labeled probe, recombinant protein, protein details: N-terminal Strep-tag II, label: 5' 32P, single-stranded DNA
[8] = test system: B35SSB Y117F (Bacillus phage Bam35); settings: mainly unstable complexes (smear); EMSA: 50 mM Tris-HCl pH 7.5, 50 mM NaCl, 1 mM DTT, 4% glycerol, 0.1 mg/ml BSA, 0.05% Tween 20, 1 mM EDTA, 10 min at 4 C; 2 nM labeled probe; recombinant protein; protein details: N-terminal Strep-tag II; label: 5' 32P; single-stranded DNA
[9] = test system: B35SSB Y150A (Bacillus phage Bam35); settings: EMSA: 50 mM Tris-HCl pH 7.5, 50 mM NaCl, 1 mM DTT, 4% glycerol, 0.1 mg/ml BSA, 0.05% Tween 20, 1 mM EDTA, 10 min at 4 C, 2 nM labeled probe, recombinant protein, protein details: N-terminal Strep-tag II, label: 5' 32P, single-stranded DNA
[10] = test system: B35SSB Y150F (Bacillus phage Bam35); settings: EMSA: 50 mM Tris-HCl pH 7.5, 50 mM NaCl, 1 mM DTT, 4% glycerol, 0.1 mg/ml BSA, 0.05% Tween 20, 1 mM EDTA, 10 min at 4 C, 2 nM labeled probe, recombinant protein, protein details: N-terminal Strep-tag II, label: 5' 32P, single-stranded DNA
[11] = test system: B35SSB Y63A (Bacillus phage Bam35); settings: strongly impaired; EMSA: 50 mM Tris-HCl pH 7.5, 50 mM NaCl, 1 mM DTT, 4% glycerol, 0.1 mg/ml BSA, 0.05% Tween 20, 1 mM EDTA, 10 min at 4 C; 2 nM labeled probe; recombinant protein; protein details: N-terminal Strep-tag II; label: 5' 32P; single-stranded DNA
[12] = test system: B35SSB Y63F (Bacillus phage Bam35); settings: milder defect than Y63A; EMSA: 50 mM Tris-HCl pH 7.5, 50 mM NaCl, 1 mM DTT, 4% glycerol, 0.1 mg/ml BSA, 0.05% Tween 20, 1 mM EDTA, 10 min at 4 C; 2 nM labeled probe; recombinant protein; protein details: N-terminal Strep-tag II; label: 5' 32P; single-stranded DNA
[13] = molecular target: T1, Φ29 terminal protein (Φ29TP) (Bacillus phage Φ29) (UniProt P03681); settings: 20 nM protein, higher affinity for dsDNA; EMSA: 50 mM Tris-HCl pH 7.5, 50 mM NaCl, 1 mM DTT, 4% glycerol, 0.1 mg/ml BSA, 0.05% Tween 20, 1 mM EDTA, 10 min at 4 C; 2 nM labeled probe; label: 5' 32P; single-stranded DNA
T1 sequence (looked up, limits assumed): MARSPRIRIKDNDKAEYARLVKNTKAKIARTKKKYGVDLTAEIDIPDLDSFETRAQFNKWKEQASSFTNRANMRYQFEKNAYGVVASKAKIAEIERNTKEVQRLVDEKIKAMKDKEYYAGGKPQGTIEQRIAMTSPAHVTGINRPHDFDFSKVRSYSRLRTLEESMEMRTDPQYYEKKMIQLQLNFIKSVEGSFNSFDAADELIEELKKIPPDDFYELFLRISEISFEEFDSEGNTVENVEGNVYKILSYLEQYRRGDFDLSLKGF

Sequences of proteins named here, by UniProt entry; tags and fusion partners are left off. A change or cut given only in a name is not applied to a line headed by its entry.
UniProt P0AGE0: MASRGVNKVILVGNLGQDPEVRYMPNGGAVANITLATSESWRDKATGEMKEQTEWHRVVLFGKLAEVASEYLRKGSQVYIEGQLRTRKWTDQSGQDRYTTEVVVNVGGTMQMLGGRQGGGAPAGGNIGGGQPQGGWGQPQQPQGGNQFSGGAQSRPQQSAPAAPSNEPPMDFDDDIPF

[14] = molecular target: EcoSSB (Escherichia coli) (UniProt P0AGE0); settings: 1 uM protein, binds ssDNA more efficiently; EMSA: 50 mM Tris-HCl pH 7.5, 50 mM NaCl, 1 mM DTT, 4% glycerol, 0.1 mg/ml BSA, 0.05% Tween 20, 1 mM EDTA, 10 min at 4 C; 2 nM labeled probe; label: 5' 32P on strand 1
[15] = mainly unstable complexes (smear), 2 nM labeled probe
[16] = no stable complexes even at high protein, very unstable, 2 nM labeled probe
[17] = stable complexes, higher protein concentration required
[18] = more stable complexes than with 33-mer
[19] = no stable complexes, 2 nM labeled …
[20] = clearly weaker than with 50-mer(2)
[21] = less stable than with 50-mer(2)

Question: Does “TTTTTTTTTTTTTTTTTTTTTTTTTTTTTTTTT [poly-dT 33-mer]” bind ([1]; smeared gradient, partial or unstable binding, label: 5' 32P, single-stranded DNA)?
Answer: Result: binds more weakly

Question: Does “GAAAATAAAAATAAACTGGACAATTAAGGATCCTGTACAAGTCGACGCGG [50-mer]” bind ([1]; whole probe (2 nM) bound at 500 nM protein, label: 5' 32P, single-stranded DNA)?
Answer: Result: binds

Question: Does “GAAAATAAAAATAAACTGGACAATTAAGGATCCTGTACAAGTCGACGCGG [50-mer]” bind [2, 15]?
Answer: Result: binds more weakly

Question: Does “GAAAATAAAAATAAACTGGACAATTAAGGATCCTGTACAAGTCGACGCGG [50-mer]” bind [3]?
Answer: Result: binds more weakly

Question: Does “GAAAATAAAAATAAACTGGACAATTAAGGATCCTGTACAAGTCGACGCGG [50-mer]” bind [4]?
Answer: Result: binds more weakly

Question: Does “GAAAATAAAAATAAACTGGACAATTAAGGATCCTGTACAAGTCGACGCGG [50-mer]” bind ([5]; strongly impaired)?
Answer: Result: binds more weakly

Question: Does “GAAAATAAAAATAAACTGGACAATTAAGGATCCTGTACAAGTCGACGCGG [50-mer]” bind [6, 15]?
Answer: Result: binds more weakly

Question: Does “GAAAATAAAAATAAACTGGACAATTAAGGATCCTGTACAAGTCGACGCGG [50-mer]” bind ([7]; mainly unstable complexes (smear))?
Answer: Result: binds more weakly

Question: Does “GAAAATAAAAATAAACTGGACAATTAAGGATCCTGTACAAGTCGACGCGG [50-mer]” bind [8]?
Answer: Result: binds more weakly

Question: Does “GAAAATAAAAATAAACTGGACAATTAAGGATCCTGTACAAGTCGACGCGG [50-mer]” bind ([9]; similar to WT)?
Answer: Result: binds

Question: Does “GAAAATAAAAATAAACTGGACAATTAAGGATCCTGTACAAGTCGACGCGG [50-mer]” bind ([10]; similar to WT)?
Answer: Result: binds

Question: Does “GAAAATAAAAATAAACTGGACAATTAAGGATCCTGTACAAGTCGACGCGG [50-mer]” bind [11]?
Answer: Result: binds more weakly

Question: Does “GAAAATAAAAATAAACTGGACAATTAAGGATCCTGTACAAGTCGACGCGG [50-mer]” bind [12]?
Answer: Result: binds more weakly

Question: Does “GAAAATAAAAATAAACTGGACAATTAAGGATCCTGTACAAGTCGACGCGG [50-mer]” bind [13]?
Answer: Result: binds more weakly

Question: Does “GATCACAGTGAGTACAATAGAACGACGGCCAGTTGTCTCAATCTAACGGC [50-mer(2)]” bind ([1]; no difference from the other 50-mer, label: 5' 32P, single-stranded DNA)?
Answer: Result: binds

Question: Does “GATCACAGTGAGTACAATAGAACGACGGCCAGTTGTCTCAATCTAACGGC [50-mer(2)]” bind [2, 16]?
Answer: Result: binds more weakly

Question: Does “GATCACAGTGAGTACAATAGAACGACGGCCAGTTGTCTCAATCTAACGGC [50-mer(2)]” bind [5, 17]?
Answer: Result: binds more weakly

Question: Does “GATCACAGTGAGTACAATAGAACGACGGCCAGTTGTCTCAATCTAACGGC [50-mer(2)]” bind [6, 16]?
Answer: Result: binds more weakly

Question: Does “GATCACAGTGAGTACAATAGAACGACGGCCAGTTGTCTCAATCTAACGGC [50-mer(2)]” bind [7, 17]?
Answer: Result: binds more weakly

Question: Does “GATCACAGTGAGTACAATAGAACGACGGCCAGTTGTCTCAATCTAACGGC [50-mer(2)]” bind [9, 18]?
Answer: Result: binds

Question: Does “GATCACAGTGAGTACAATAGAACGACGGCCAGTTGTCTCAATCTAACGGC [50-mer(2)]” bind [10, 18]?
Answer: Result: binds

Question: Does “AAAAAAAAAAAAAAAAAAAAAAAAAAAAAAAAA [poly-dA 33-mer]” bind ([1]; severely impaired, label: 5' 32P, single-stranded DNA)?
Answer: Result: binds more weakly

Question: Does “GAAAATAAAAATAAACTGGACAATTAAGGATCCTGTACAAGTCGACGCGG (double strand) [50-mer dsDNA]” bind ([1]; very faint shift at 1000:1 protein:dsDNA, insignificant, label: 5' 32P on strand 1)?
Answer: Result: binds more weakly

Question: Does “GAAAATAAAAATAAACTGGACAATTAAGGATCCTGTACAAGTCGACGCGG (double strand) [50-mer dsDNA]” bind [14]?
Answer: Result: binds more weakly

Question: Which results are given for “ACTGGCCGTCGTTCTATTGTACTCACTGTGATC [33-mer]”?
Answer: binding result [2, 19]: binds more weakly; binding result [5, 20]: binds more weakly; binding result [6, 19]: binds more weakly; binding result [7, 20]: binds more weakly; binding result [9, 21]: binds more weakly; binding result [10, 21]: binds more weakly

— paper PMC8276246
